These results are taken from publication PMC7862700.

Sequences of proteins named here, by UniProt entry; tags and fusion partners are left off. A change or cut given only in a name is not applied to a line headed by its entry.
UniProt Q01892: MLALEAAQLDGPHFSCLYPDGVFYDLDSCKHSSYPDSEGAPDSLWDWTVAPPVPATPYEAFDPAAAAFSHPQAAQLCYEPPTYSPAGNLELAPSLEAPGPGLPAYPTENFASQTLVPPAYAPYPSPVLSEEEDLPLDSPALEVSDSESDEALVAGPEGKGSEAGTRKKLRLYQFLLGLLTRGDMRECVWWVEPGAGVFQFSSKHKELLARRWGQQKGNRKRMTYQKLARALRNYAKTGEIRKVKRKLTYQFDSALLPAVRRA
UniProt P41161: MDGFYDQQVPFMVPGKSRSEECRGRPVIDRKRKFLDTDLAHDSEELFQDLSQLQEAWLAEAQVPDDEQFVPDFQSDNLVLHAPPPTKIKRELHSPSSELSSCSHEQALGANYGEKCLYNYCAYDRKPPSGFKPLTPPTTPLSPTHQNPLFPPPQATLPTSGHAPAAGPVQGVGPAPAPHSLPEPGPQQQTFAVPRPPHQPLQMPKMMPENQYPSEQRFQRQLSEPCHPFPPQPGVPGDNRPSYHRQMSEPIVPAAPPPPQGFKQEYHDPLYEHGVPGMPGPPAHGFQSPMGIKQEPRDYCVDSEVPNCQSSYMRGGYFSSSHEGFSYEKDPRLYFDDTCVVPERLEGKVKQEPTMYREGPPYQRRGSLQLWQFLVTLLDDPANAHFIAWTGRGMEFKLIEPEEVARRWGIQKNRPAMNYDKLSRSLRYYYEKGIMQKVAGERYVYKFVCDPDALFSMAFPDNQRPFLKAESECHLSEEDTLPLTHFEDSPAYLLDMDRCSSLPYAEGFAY
UniProt Q99607: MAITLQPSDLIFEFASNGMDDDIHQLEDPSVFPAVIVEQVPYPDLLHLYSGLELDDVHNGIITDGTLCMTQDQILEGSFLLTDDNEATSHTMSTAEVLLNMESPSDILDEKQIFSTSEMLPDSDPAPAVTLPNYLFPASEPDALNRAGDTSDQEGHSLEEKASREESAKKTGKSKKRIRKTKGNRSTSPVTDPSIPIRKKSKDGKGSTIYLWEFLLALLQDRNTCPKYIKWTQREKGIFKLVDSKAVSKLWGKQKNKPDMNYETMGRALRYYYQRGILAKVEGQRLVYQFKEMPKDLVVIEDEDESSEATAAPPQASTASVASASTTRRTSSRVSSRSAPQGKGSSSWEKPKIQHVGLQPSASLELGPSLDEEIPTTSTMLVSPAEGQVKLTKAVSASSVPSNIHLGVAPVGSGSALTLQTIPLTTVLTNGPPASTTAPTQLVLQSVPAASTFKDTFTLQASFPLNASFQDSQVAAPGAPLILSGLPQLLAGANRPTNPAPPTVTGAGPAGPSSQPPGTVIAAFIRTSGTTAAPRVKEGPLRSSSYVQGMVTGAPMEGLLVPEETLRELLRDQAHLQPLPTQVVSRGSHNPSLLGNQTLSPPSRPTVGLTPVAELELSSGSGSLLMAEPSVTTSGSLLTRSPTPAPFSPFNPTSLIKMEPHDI

This is a selection; strong and weak results do not stand in their true shares. At the low end of the ranking the order means little.

Targets include SPIB (UniProt Q01892); ETV5 (UniProt P41161); ELF4 (UniProt Q99607).
Common to all, as to experiment: DAPPL (digital affinity profiling via proximity ligation, sequencing)
Common to all, as to details: 10 mM Tris-HCl pH 7.5, 50 mM NaCl, 1 mM DTT, 4% glycerol, room temperature, 30 min; GST-TFs on glutathione beads, 16-mer random dsDNA library, 0.1% …; high values mean tight binding; double strand, one strand shown; scale: fold enrichment (6-mer frequency, TF over GST control)

The next assay has as its target T1, FLI1 (UniProt Q01543).
T1 sequence: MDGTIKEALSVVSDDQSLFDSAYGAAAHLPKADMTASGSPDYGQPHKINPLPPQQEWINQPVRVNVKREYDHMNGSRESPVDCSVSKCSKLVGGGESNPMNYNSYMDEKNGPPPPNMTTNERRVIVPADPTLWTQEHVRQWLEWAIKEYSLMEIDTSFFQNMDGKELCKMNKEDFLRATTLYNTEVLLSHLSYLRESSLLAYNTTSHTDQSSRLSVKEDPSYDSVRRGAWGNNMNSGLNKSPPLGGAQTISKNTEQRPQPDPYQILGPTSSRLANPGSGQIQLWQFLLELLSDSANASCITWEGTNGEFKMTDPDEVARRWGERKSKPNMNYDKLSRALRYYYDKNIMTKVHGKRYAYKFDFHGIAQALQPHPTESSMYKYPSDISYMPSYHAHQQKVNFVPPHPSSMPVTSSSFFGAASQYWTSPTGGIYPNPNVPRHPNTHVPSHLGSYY

For a further assay, the target named is T2, EHF (UniProt Q9NZC4).
T2 sequence: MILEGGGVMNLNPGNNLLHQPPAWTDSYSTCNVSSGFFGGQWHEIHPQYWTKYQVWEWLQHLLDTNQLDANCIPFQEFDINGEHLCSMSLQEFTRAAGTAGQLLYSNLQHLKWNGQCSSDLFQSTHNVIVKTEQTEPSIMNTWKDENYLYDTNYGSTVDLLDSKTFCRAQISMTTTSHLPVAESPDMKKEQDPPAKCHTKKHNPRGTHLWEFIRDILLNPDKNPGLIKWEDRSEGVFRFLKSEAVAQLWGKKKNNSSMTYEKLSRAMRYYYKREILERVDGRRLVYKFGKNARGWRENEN

The target of a further assay is T3, ETV2 (UniProt O00321).
T3 sequence: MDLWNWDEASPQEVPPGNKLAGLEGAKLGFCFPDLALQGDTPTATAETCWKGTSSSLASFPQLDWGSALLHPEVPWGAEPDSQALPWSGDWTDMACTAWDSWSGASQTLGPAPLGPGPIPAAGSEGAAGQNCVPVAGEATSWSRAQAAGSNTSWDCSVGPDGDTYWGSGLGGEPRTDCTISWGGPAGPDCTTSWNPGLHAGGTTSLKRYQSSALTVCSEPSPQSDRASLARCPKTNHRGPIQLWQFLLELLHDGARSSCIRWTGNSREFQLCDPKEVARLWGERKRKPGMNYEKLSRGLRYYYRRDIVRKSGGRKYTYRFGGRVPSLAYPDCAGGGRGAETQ

The next assay concerns the target T4, ETV3L (UniProt Q6ZN32).
T4 sequence: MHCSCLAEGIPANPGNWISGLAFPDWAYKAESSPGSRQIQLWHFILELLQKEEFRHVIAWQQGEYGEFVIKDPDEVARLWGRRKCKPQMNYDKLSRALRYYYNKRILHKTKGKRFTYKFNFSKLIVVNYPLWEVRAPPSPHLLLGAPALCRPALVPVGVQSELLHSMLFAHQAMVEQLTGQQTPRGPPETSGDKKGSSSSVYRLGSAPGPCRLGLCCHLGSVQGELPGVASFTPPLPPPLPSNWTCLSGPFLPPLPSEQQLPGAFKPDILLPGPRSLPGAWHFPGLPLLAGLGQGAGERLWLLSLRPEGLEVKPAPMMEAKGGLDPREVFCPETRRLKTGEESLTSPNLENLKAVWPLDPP

Regarding GTCGAA, the binding signal with FLI1 turned out to be 0.642; in the assay with EHF, 0.607; in the assay with SPIB, 0.614; with ETV5, 0.654; with ELF4 it was 0.65; in the assay with ETV2, 0.643. In addition, in the assay with ETV3L, the binding signal was found to be 0.613.
On to GATCGT, for which the binding signal with FLI1 came out at 0.442; in the assay with EHF, 0.405; with SPIB it was 0.404; in the assay with ETV5 it was 0.418; with ELF4, 0.431; with ETV2, 0.406. Moreover, the binding signal with ETV3L is 0.467.
For ATGAGA, the binding signal with FLI1 was determined as 0.82; in the assay with EHF, 0.897; with SPIB it was 0.815; in the assay with ETV5, 0.868; in the assay with ELF4 it was 0.875; with ETV2, 0.894. In addition, the binding signal in the assay with ETV3L is 0.86.
In the case of GTGAAC, the binding signal worked out at 0.813 in the assay with FLI1; 0.885 in the assay with EHF; 0.797 with SPIB; 0.833 in the assay with ETV5; 0.837 with ELF4; 0.765 with ETV2. Also, in the assay with ETV3L, the binding signal was 0.908.
As for CGGGTA, the binding signal was 0.857 with FLI1; 0.796 with EHF; 0.778 with SPIB; 0.837 with ETV5; 0.769 in the assay with ELF4; 0.815 with ETV2. In the assay with ETV3L, this sequence yielded a binding signal of 0.801.
As for GTGGGA, the binding signal amounted to 0.59 with FLI1; 0.582 in the assay with EHF; 0.545 with SPIB; 0.596 with ETV5; 0.56 with ELF4; 0.601 in the assay with ETV2. The sequence also registered a binding signal in the assay with ETV3L of 0.575.
Turning to GAGTAG, the binding signal in the assay with FLI1 was 0.522; with EHF, 0.493; with SPIB, 0.541; in the assay with ETV5 it was 0.471; in the assay with ELF4 it was 0.462; in the assay with ETV2 it was 0.471. For the same sequence, the binding signal with ETV3L worked out at 0.545.
ATCGGC: the binding signal with FLI1 turned out to be 0.717; with EHF it was 0.626; with SPIB it was 0.61; with ETV5, 0.644; with ELF4, 0.701; with ETV2 it was 0.705. For the same sequence, in the assay with ETV3L, the binding signal stood at 0.689.
GGGACT: the binding signal was 0.664 with FLI1; 0.677 in the assay with EHF; 0.649 with SPIB; 0.654 with ETV5; 0.692 with ELF4; 0.738 in the assay with ETV2. This sequence also yielded a binding signal with ETV3L of 0.632.
With CGCGAG, the binding signal with FLI1 was determined as 0.531; with EHF, 0.502; in the assay with SPIB it was 0.472; in the assay with ETV5 it was 0.525; with ELF4 it was 0.557; with ETV2 it was 0.496. Also, in the assay with ETV3L, the binding signal came out at 0.525.
Consider GTGTGG, for which the binding signal stood at 0.652 with FLI1; 0.594 with EHF; 0.745 with SPIB; 0.628 with ETV5; 0.583 with ELF4; 0.62 in the assay with ETV2. The binding signal in the assay with ETV3L was 0.632.
ATGAGT: the binding signal stood at 0.729 in the assay with FLI1; 0.767 with EHF; 0.601 with SPIB; 0.706 with ETV5; 0.692 with ELF4; 0.775 in the assay with ETV2. The sequence also gave a binding signal with ETV3L of 0.722.
On to ACCAGA, for which the binding signal amounted to 0.887 in the assay with FLI1; 0.878 with EHF; 0.895 with SPIB; 0.913 in the assay with ETV5; 0.946 in the assay with ELF4; 1.01 with ETV2. In addition, the binding signal in the assay with ETV3L was found to be 0.958.
For GCGTGA, the binding signal in the assay with FLI1 turned out to be 0.286; in the assay with EHF, 0.279; with SPIB it was 0.273; with ETV5, 0.294; with ELF4, 0.271; with ETV2 it was 0.308. Further, in the assay with ETV3L, the binding signal came to 0.291.
Consider AGGAGA, for which the binding signal stood at 0.209 with FLI1; 0.199 in the assay with EHF; 0.203 with SPIB; 0.207 with ETV5; 0.211 with ELF4; 0.208 with ETV2. The same sequence gave a binding signal with ETV3L of 0.229.
On to GGTCGG, for which the binding signal with FLI1 turned out to be 0.263; with EHF, 0.291; with SPIB, 0.27; in the assay with ETV5, 0.279; in the assay with ELF4 it was 0.281; in the assay with ETV2 it was 0.296. Besides, in the assay with ETV3L, the binding signal was found to be 0.277.
As for GCCCAG, the binding signal with FLI1 was determined as 0.697; in the assay with EHF, 0.655; in the assay with SPIB it was 0.678; with ETV5 it was 0.718; with ELF4, 0.733; in the assay with ETV2, 0.824. In the assay with ETV3L, this sequence showed a binding signal of 0.708.
Take GTCAGC: the binding signal with FLI1 was found to be 0.753; in the assay with EHF, 0.694; with SPIB, 0.706; with ETV5, 0.71; with ELF4 it was 0.769; in the assay with ETV2, 0.885. The sequence further had a binding signal with ETV3L of 0.651.
GGACAC: the binding signal was 0.771 in the assay with FLI1; 0.789 with EHF; 0.702 with SPIB; 0.792 with ETV5; 0.827 with ELF4; 0.663 with ETV2. Also, the binding signal with ETV3L was determined as 0.743.
Consider AGCCAG, for which the binding signal is 0.481 in the assay with FLI1; 0.499 in the assay with EHF; 0.432 with SPIB; 0.479 with ETV5; 0.488 with ELF4; 0.458 with ETV2. In addition, the binding signal with ETV3L stood at 0.456.
In the case of ACGGAG, the binding signal is 0.368 with FLI1; 0.378 with EHF; 0.402 in the assay with SPIB; 0.328 with ETV5; 0.36 with ELF4; 0.367 with ETV2. In the assay with ETV3L, this sequence returned a binding signal of 0.393.
On to ACTGAG, for which the binding signal with FLI1 turned out to be 0.752; with EHF it was 0.768; with SPIB it was 0.721; with ETV5 it was 0.738; in the assay with ELF4, 0.743; with ETV2 it was 0.782. The binding signal in the assay with ETV3L was 0.807.
Take CCAGTG: the binding signal with FLI1 was 0.481; with EHF, 0.443; with SPIB, 0.426; in the assay with ETV5 it was 0.466; with ELF4, 0.458; with ETV2, 0.392. In the assay with ETV3L, this sequence showed a binding signal of 0.455.
Regarding ACACGT, the binding signal in the assay with FLI1 is 0.743; with EHF, 0.806; with SPIB it was 0.746; with ETV5, 0.844; in the assay with ELF4, 0.806; in the assay with ETV2, 0.756. For the same sequence, the binding signal with ETV3L is 0.791.
CGTCGG: the binding signal with FLI1 worked out at 0.389; with EHF, 0.44; with SPIB, 0.473; with ETV5, 0.426; in the assay with ELF4, 0.416; in the assay with ETV2, 0.459. In the assay with ETV3L, this sequence came in with a binding signal of 0.449.
With GTGCCA, the binding signal in the assay with FLI1 came out at 0.843; with EHF it was 0.788; in the assay with SPIB, 0.775; with ETV5, 0.796; with ELF4 it was 0.761; in the assay with ETV2, 0.846. This sequence came in with a binding signal with ETV3L of 0.808.
For the sequence TGCGGG, the binding signal is 0.863 with FLI1; 0.841 with EHF; 0.855 in the assay with SPIB; 0.81 with ETV5; 0.862 in the assay with ELF4; 0.828 with ETV2. In the assay with ETV3L, this sequence displayed a binding signal of 0.835.
As for GGAGGA, the binding signal in the assay with FLI1 was found to be 0.263; in the assay with EHF, 0.261; with SPIB it was 0.235; with ETV5, 0.259; with ELF4, 0.252; with ETV2, 0.269. In the assay with ETV3L, this sequence had a binding signal of 0.263.
In the case of GGCGGC, the binding signal with FLI1 was found to be 0.534; in the assay with EHF, 0.532; with SPIB, 0.629; with ETV5, 0.572; in the assay with ELF4, 0.584; with ETV2, 0.72. In addition, the binding signal in the assay with ETV3L came out at 0.57.
With TCGGGT, the binding signal with FLI1 turned out to be 0.594; with EHF it was 0.574; with SPIB it was 0.529; with ETV5, 0.582; with ELF4 it was 0.584; with ETV2, 0.544. The sequence further displayed a binding signal in the assay with ETV3L of 0.599.
